Counter-ions that a name gives are not always drawn.
tested on: proton pump(H^+ /K^+ ATPase); test: Inhibition of proton pump(H^+ /K^+ ATPase) activity; type: biochemical; details: IC50 omeprazole / IC50 test compound
Procedure: Test 1: Inhibition of proton pump(H^+ /K^+ ATPase) activity
A proton pump enzyme source was prepared by the same method as in Experiment 1-1 of WO 94/14795. Further, the inhibitory effect of proton pump activity was measured by the same method as in Experiment 1-2 of WO 94/14795.
Namely, the proton pump activity stimulated by Mg^++ was used as a negative comparative group, and the activity stimulated by Mg^++ and K^+ was used as a positive comparative group. The comparative compound was omeprazole.
Test tubes were divided into 4 groups: Group 1 as negative comparative group(n=3), Group 2 as positive comparative group(n=3), Group 3(n=5×2) to be administered with the compound of the present invention and Group 4(n=5×2) to be administered with the comparative compound.
The inhibitory effects of Groups 3 and 4 on proton pump activity were measured by employing the compound prepared in Example and omeperazole, respectively, each of which was dissolved in dimethylsulfoxide at 5 different concentrations.
To each of Groups 1, 2, 3 and 4 were added 100 μl of magnesium chloride(40 mM) dissolved in 40 mM Tris-HCl buffer(pH 6.0) and 100μ of the enzyme source. Then, 50μ of potassium chloride(50 mM) and 50 μl of ammonium chloride(6 mM) dissolved in 40 mM Tris-HCl buffer(pH 6.0) were added to all groups except for Group 1.
10 μl of dimethylsulfoxide was added to each of Groups 1 and 2; and to Group 3 was added 10 μl of the solution in which the compound prepared in Example was dissolved in dimethylsulfoxide at 5 different concentrations(n=5×2). To Group 4, 10 μl of the solution prepared by dissolving omeprazole in dimethylsulfoxide at 5 different concentrations(37.6, 21.4, 12.2, 7.0 and 4.0 μM) was added(n=5×2). 40 mM Tris-HCl buffer(pH=6.0) was added thereto so as to make the total volume 400 μl.
Thereafter, the test tubes of each Group were placed at 37° C. for 30 minutes for the preincubation. 100 μl of ATP solution (6.6 mM) was added until the reaction volume became 500 μl. After the reaction was carried out at 37° C. for 30 minutes, 25% cold trichloroacetic acid was added to terminate the enzyme reaction. The released inorganic phosphate was measured by an automatic analyzer(Express 550, Corning).
The difference between Group 1 and Group 2 represents the proton pump activity activated by K^+ only. The inhibition percentages of Groups 3 and 4 were calculated from Litchfield-wilcoxon equation[see, e.g., J. pharmacol. Exp. Ther., 96, 99(1949)]. The concentrations of the test compounds which inhibit 50% of the proton pump activity are represented as IC50 in Table 1.

Structure (SMILES) | Effect ratio
CCc1cc(N2CCc3ccccc3C2)nc(Nc2ccc(F)cc2)n1.Cl [Example 38, 6-ethyl-2-(4-fluorophenylamino)-4-(1,2,3,4-tetrahydroisoquinolin-2-yl)pyrimidine hydrochloride] | 3.24
Cc1cc(F)ccc1Nc1nc(N2CCc3ccccc3[C@@H]2C)nc(C)c1C.Cl [Example 67, (S)-5,6-dimethyl-4-(2-methyl-4-fluorophenylamino)-2-(1-methyl-1,2,3,4-tetrahydroisoquinolin-2-yl)pyrimidine hydrochloride] | 4.50
Cc1nc(Nc2ccc(F)cc2)nc(N2CCc3ccccc3[C@H]2C)c1C.Cl [Example 16, (R)-5,6-dimethyl-2-(4-fluorophenylamino)-4-(1-methyl-1,2,3,4-tetrahydroisoquinolin-2-yl)pyrimidine hydrochloride] | 3.80
CCc1cc(N(C)c2ccccc2)nc(N2CCc3ccccc3C2)n1.Cl [Example 64, 6-ethyl-4-(N-methylphenylamino)-2-(1,2,3,4-tetrahydroisoquinolin-2-yl)pyrimidine hydrochloride] | ~ 1.42
CCc1cc(N2CCc3ccccc3C2)nc(Nc2ccccc2C)n1.Cl [Example 40, 6-ethyl-2-(2-methylphenylamino)-4-(1,2,3,4-tetrahydroisoquinolin-2-yl)pyrimidine hydrochloride] | 9.17
Cc1cc(F)ccc1Nc1nc(C)c(C)c(N2CCc3ccccc3C2)n1.Cl [Example 41, 5,6-dimethyl-2-(2-methyl-4-fluorophenylamino)-4-(1,2,3,4-tetrahydroisoquinolin-2-yl)pyrimidine hydrochloride] | 18.10
Cc1nc(Nc2ccc(F)cc2)nc(N2CCc3ccccc3[C@@H]2C)c1C.Cl [Example 17, (S)-5,6-dimethyl-2-(4-fluorophenylamino)-4-(1-methyl-1,2,3,4-tetrahydroisoquinolin-2-yl)pyrimidine hydrochloride] | 3.20
Cc1nc(N(C)c2ccccc2)nc(N2CCc3ccccc3[C@H]2C)c1C.Cl [Example 19, (R)-5,6-Dimethyl-2-(N-methylphenylamino)-4-(1-methyl-1,2,3,4-tetrahydroisoquinolin-2-yl)pyrimidine hydrochloride] | 2.92
CCc1cc(Nc2ccc(F)cc2C)nc(N2CCc3ccccc3C2)n1.Cl [Example 62, 6-ethyl-4-(2-methyl-4-fluorophenylamino)-2-(1,2,3,4-tetrahydroisoquinolin-2-yl)pyrimidine hydrochloride] | < 0.71
CCc1cc(N2CCc3ccccc3C2C)nc(Nc2ccccc2C)n1.Cl (stereo not drawn) [Example 8, 6-ethyl-2-(2-methylphenylamino)-4-(1-methyl-1,2,3,4-tetrahydroisoquinolin-2-yl)pyrimidine hydrochloride] | ~ 0.60
Cc1cc(N2CCc3ccsc3C2C)nc(Nc2ccc(F)cc2)n1.Cl (stereo not drawn) [Example 53, 6-methyl-4-(7-methyl-4,5,6,7-tetrahydrothieno[2,3-c]pyridin-6-yl)-2-(4-fluorophenylamino)pyrimidine hydrochloride] | 5.38
Cc1ccccc1Nc1nc(C)c(C)c(N2CCc3ccccc3C2C)n1.Cl (stereo not drawn) [Example 24, 5,6-Dimethyl-2-(2-methylphenylamino)-4-(1-methyl-1,2,3,4-tetrahydroisoquinolin-2-yl)pyrimidine hydrochloride] | 19.33
CCc1nc(Nc2ccc(F)cc2)nc(N2CCc3ccccc3C2C)c1C.Cl (stereo not drawn) [Example 27, 5-methyl-6-ethyl-2-(4-fluorophenylamino)-4-(1-methyl-1,2,3,4-tetrahydroisoquinolin-2-yl)pyrimidine hydrochloride] | 6.26
CCCc1cc(N2CCc3ccccc3C2C)nc(Nc2ccc(F)cc2C)n1.Cl (stereo not drawn) [Example 9, 2-(2-methyl-4-fluorophenylamino)-4-(1-methyl-1,2,3,4-tetrahydroisoquinolin-2-yl)-6-propylpyrimidine hydrochloride] | ~ 1.12
Cc1cc(Nc2ccc(F)cc2)nc(N2CCc3ccccc3C2C)n1.Cl (stereo not drawn) [Example 58, 6-methyl-4-(4-fluorophenylamino)-2-(1-methyl-1,2,3,4-tetrahydroisoquinolin-2-yl)pyrimidine hydrochloride] | < 0.45
Cc1cc(N2CCc3ccsc3C2C)nc(Nc2ccc(F)cc2C)n1.Cl (stereo not drawn) [Example 52, 6-methyl-2-(2-methyl-4-fluorophenylamino)-4-(7-methyl-4,5,6,7-tetrahydrothieno[2,3-c]pyridin-6-yl)pyrimidine hydrochloride] | 21.11
CC1c2ccccc2CCN1c1nc(Nc2ccc(F)cc2)nc2c1CCC2 (stereo not drawn) [Example 30, hydrochloride] | ~ 1.69
Cc1cc(F)ccc1Nc1nc(N2CCc3ccsc3C2C)nc(C)c1C.Cl (stereo not drawn) [Example 77, 5,6-dimethyl-4-(2-methyl-4-fluorophenylamino)-2-(7-methyl-4,5,6,7-tetrahydrothieno[2,3-c]pyridin-6-yl)pyrimidine hydrochloride] | 3.16
CCc1nc(Nc2ccc(F)cc2C)nc(N2CCc3ccccc3C2C)c1C.Cl (stereo not drawn) [Example 26, 5-methyl-6-ethyl-2-(2-methyl-4-fluorophenylamino)-4-(1-methyl-1,2,3,4-tetrahydroisoquinolin-2-yl)pyrimidine hydrochloride] | 15.62
Cc1nc(N2CCc3ccccc3[C@@H]2C)nc(Nc2ccc(F)cc2)c1C.Cl [Example 70, (S)-5,6-dimethyl-4-(4-fluorophenylamino)-2-(1-methyl-1,2,3,4-tetrahydroisoquinolin-2-yl)pyrimidine hydrochloride] | 1.70
Cc1cc(F)ccc1Nc1nc(C)c(C)c(N2CCc3ccccc3C2C)n1.Cl (stereo not drawn) [Example 12, 5,6-dimethyl-2-(2-methyl-4-fluorophenylamino)-4-(1-methyl-1,2,3,4-tetrahydroisoquinolin-2-yl)pyrimidine hydrochloride] | 9.83
Cc1nc(N(C)c2ccccc2)nc(N2CCc3ccccc3C2C)c1C.Cl (stereo not drawn) [Example 18, 5,6-dimethyl-2-(N-methylphenylamino)-4-(1-methyl-1,2,3,4-tetrahydroisoquinolin-2-yl)pyrimidine hydrochloride] | 2.69
Cc1cc(N2CCc3ccccc3C2C)nc(Nc2ccc(F)cc2C)n1.Cl (stereo not drawn) [Example 2, 6-methyl-2-(2-methyl-4-fluorophenylamino)-4-(1-methyl-1,2,3,4-tetrahydroisoquinolin-2-yl)pyrimidine hydrochloride] | 7.82
Cc1ccccc1Nc1nc2c(c(N3CCc4ccccc4C3)n1)CCCC2.Cl [Example 51, 2-(2-methylphenylamino)-4-(1,2,3,4-tetrahydroisoquinolin-2-yl)-5,6,7,8-tetrahydroquinazoline hydrochloride] | 7.05
Cc1nc(Nc2ccccc2)nc(N2CCc3ccccc3[C@@H]2C)c1C [Example 23, hydrochloride] | 5.45
Cc1nc(Nc2ccc(F)cc2)nc(N2CCc3ccccc3C2C)c1C.Cl (stereo not drawn) [Example 15, 5,6-dimethyl-2-(4-fluorophenylamino)-4-(1-methyl-1,2,3,4-tetrahydroisoquinolin-2-yl)pyrimidine hydrochloride] | 3.69
CCc1cc(N2CCc3ccccc3C2)nc(Nc2ccc(F)cc2C)n1.Cl [Example 37, 6-ethyl-2-(2-methyl-4-fluorophenylamino)-4-(1,2,3,4-tetrahydroisoquinolin-2-yl)pyrimidine hydrochloride] | 9.85
